Results from patent publication US6638905B2, “Cloning and recombinant production of CFR receptor(s)” (priority 1993, dated 2003).
For at least one compound, name, drawing or mass did not settle the structure. No end group written: not given here.

Target: T1, hCRF-RA1 (CRF receptor encoded by clone hctCRFR) (Homo sapiens, UniProt P34998)
T1 construct: expressed in transfected cells; host or cells: COSM6 cells, DEAE-dextran transient transfection of clone hctCRFR in pcDNA1
T1 sequence (P34998 24-415): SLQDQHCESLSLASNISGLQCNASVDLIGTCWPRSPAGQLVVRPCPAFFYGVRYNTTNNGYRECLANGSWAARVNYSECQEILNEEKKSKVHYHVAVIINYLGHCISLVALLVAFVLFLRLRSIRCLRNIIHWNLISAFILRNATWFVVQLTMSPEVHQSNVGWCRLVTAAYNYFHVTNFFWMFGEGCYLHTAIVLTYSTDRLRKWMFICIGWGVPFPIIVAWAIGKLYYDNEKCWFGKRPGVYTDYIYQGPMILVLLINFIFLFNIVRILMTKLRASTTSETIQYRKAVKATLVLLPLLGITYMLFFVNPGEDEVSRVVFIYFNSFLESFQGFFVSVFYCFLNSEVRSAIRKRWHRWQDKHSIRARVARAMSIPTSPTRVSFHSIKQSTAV
Assay: Competitive radioreceptor assay: displacement of 125I-(Nle21,Tyr32)-ovine CRF from membranes of COSM6 cells transfected with hctCRFR
Conditions: COSM6 cell membranes, read-out: Kd (binding affinity)
Method: Approximately 10^6 COSM6 cells were transfected with either […] or […] (rat gonadotropin releasing hormone receptor) by the DEAE-dextran method and grown in 150 mm tissue culture dishes. Two days after transfection, the cells were washed twice with 1 ml HDB and were detached by incubation for 15 min at room temperature in 0.5 mM EDTA in HDB. After pelleting, the cells were washed twice with HDB, and then homogenized in 5% sucrose (16 ml/150 mm dish). […] The reaction was terminated by filtration through GF/C (Whatman) filters, prewetted with 1%BSA, 10 mM HEPES, pH 7.5. The filters were washed 4 times with 1 ml 0.1% BSA, 50 mM Tris, pH 7.5. Filter-bound radioactivity, indicating the presence of CRF-R:^125 I-([…],Tyr^32)-ovine CRF complex, was determined by g-scintillation counting.

## SQEPPISLDLTFHALREVLEMTKADQLAQQAHSNRKLLDIA-NH2 (C-terminus assumed) [[Ala^14]-ovine CRF]
  Kd: > 300 nM
